According to patent US8309354B2, “Human cancer stem cells” (MacroGenics West, Inc., priority 2007, dated 2012):
At least one compound was matched to its structure with a doubt left.

System: breast carcinoma cell line BRCA1103
Assay: Flow cytometry of cell surface markers under changed culture conditions
Type: cell-based, human
Conditions: BRCA1103 in the presence of forskolin vs without; data not shown

## C=C[C@@]1(C)CC(=O)[C@]2(O)[C@@]3(C)[C@@H](O)CCC(C)(C)[C@@H]3[C@H](O)[C@H](OC(C)=O)[C@@]2(C)O1 [forskolin]
  CD24 cell surface marker level: reduction
  CD44 cell surface marker level: reduction
